Some test systems named below: OR6T1 clone 1188; OR6Y1 V252I clone 1025; OR7A10 clone 1104; OR7A17 clone 1300; OR7A5 clone 1469; OR7C1 clone 1299; OR6Q1 clone 1231; OR6V1 clone 1730; OR6X1 clone 1239.
Holding throughout (experiment): odorant receptor activation (CRE luciferase / Renilla) (fold of no-odor wells); higher = more activation
Holding throughout (conditions): 100 µM

For assay [1], the system named is OR6S1 T42I/V156I/R237H clone 1271.

“And” between values parts separate entries of the source, which are not always exact repeats. Equal entries are not always repeated. Some of the results follow. Each value is one well over the wells without odorant, computed here; the data are noisy.

Consider `COC(=O)c1ccccc1` [methyl benzoate], for which the odorant receptor activation was 0.64 in assay [1]; 1.09 with OR6T1 clone 1188; 1.5 with OR6Y1 V252I clone 1025; 1.94 in the assay with OR7A10 clone 1104; 1.12 in the assay with OR7A17 clone 1300; 0.536 and 0.78 with OR7A5 clone 1469. In the assay on OR7C1 clone 1299, this molecule returned an odorant receptor activation of 0.693.
Take `CC(=O)c1ccccc1` [acetophenone]: the odorant receptor activation in [1] is 2.31; in the assay on OR6T1 clone 1188, 1.21; in the assay on OR6Y1 V252I clone 1025, 0.666; in the assay with OR7A10 clone 1104, 0.783; with OR7A17 clone 1300, 0.938; with OR7A5 clone 1469, 0.991 and 0.682. The same molecule registered an odorant receptor activation with OR7C1 clone 1299 of 1.85.
Regarding `CC(=O)OCC=C(C)CCC=C(C)C` [geranyl acetate], the odorant receptor activation was 0.879 in the assay with OR6Q1 clone 1231; 1.14 and 1.34 in [1]; 0.971 with OR6T1 clone 1188; 1.09 in the assay on OR6V1 clone 1730; 1.93 in the assay on OR6X1 clone 1239; 1.71 with OR6Y1 V252I clone 1025. For the same molecule, the odorant receptor activation in the assay with OR7A10 clone 1104 was 1.48; with OR7A17 clone 1300, 1.91 and 1.24; with OR7A5 clone 1469 it was 1.25 and 1.54; in the assay on OR7C1 clone 1299, 0.902 and 1.12.
Turning to `CCCCCC(C)=O` [2-heptanone], the odorant receptor activation in assay [1] is 1.01; in the assay with OR6T1 clone 1188, 1.15; in the assay on OR6Y1 V252I clone 1025, 0.653; in the assay on OR7A10 clone 1104, 0.465; in the assay on OR7A17 clone 1300, 2.19; in the assay with OR7A5 clone 1469, 0.734 and 0.581. In addition, in the assay on OR7C1 clone 1299, the odorant receptor activation is 1.8.
Regarding `CCCCO` [1-butanol], the odorant receptor activation in the assay with OR6Q1 clone 1231 worked out at 1.12; in [1], 1; in the assay with OR6T1 clone 1188, 1.06; in the assay on OR6V1 clone 1730 it was 0.829; in the assay on OR6X1 clone 1239, 0.873; in the assay on OR6Y1 V252I clone 1025 it was 4.04. The odorant receptor activation stood at 8.15 in the assay on OR7A10 clone 1104, 1.1 in the assay with OR7A17 clone 1300, 1.22 in the assay with OR7A5 clone 1469 and 1.01 in the assay on OR7C1 clone 1299.
Regarding `C=CC(C)(O)CCC=C(C)C` (configuration not stated) [linalool], the odorant receptor activation came out at 0.812 in the assay on OR6Q1 clone 1231; 0.958 in [1]; 1.04 in the assay on OR6T1 clone 1188; 1.07 with OR6V1 clone 1730; 1.08 with OR6X1 clone 1239; 1.29 in the assay with OR6Y1 V252I clone 1025. For the same molecule, the odorant receptor activation amounted to 1.25 in the assay on OR7A10 clone 1104, 1.22 with OR7A17 clone 1300, 1.12 with OR7A5 clone 1469 and 1.32 in the assay on OR7C1 clone 1299.
For the molecule `CC(C)C(=O)O` [isobutyric acid], the odorant receptor activation in the assay with OR6Q1 clone 1231 is 0.798; in assay [1], 1 and 0.844; in the assay on OR6T1 clone 1188, 1.03; with OR6V1 clone 1730 it was 0.992; with OR6X1 clone 1239, 1.11; in the assay with OR6Y1 V252I clone 1025 it was 2.37. Besides, the odorant receptor activation in the assay with OR7A10 clone 1104 was 1.88; in the assay on OR7A17 clone 1300 it was 1.05 and 1.23; with OR7A5 clone 1469, 1.14 and 1.02; in the assay with OR7C1 clone 1299, 1.2 and 0.726.
On to `O=C1CCCCC1` [Cyclohexanone], for which the odorant receptor activation in assay [1] was 0.301; with OR6T1 clone 1188, 1.02; in the assay on OR6Y1 V252I clone 1025 it was 0.971; with OR7A10 clone 1104, 1; with OR7A17 clone 1300, 0.871; in the assay with OR7A5 clone 1469, 0.608 and 0.778. This molecule also showed an odorant receptor activation in the assay on OR7C1 clone 1299 of 0.675.
In the case of `CCCCCOC(C)=O` [n-amyl acetate], the odorant receptor activation in assay [1] turned out to be 0.532; in the assay on OR6T1 clone 1188 it was 0.787; in the assay with OR6V1 clone 1730 it was 1; with OR6X1 clone 1239, 1.03; in the assay with OR6Y1 V252I clone 1025, 1.29; with OR7A10 clone 1104 it was 1.58. Moreover, the odorant receptor activation in the assay with OR7A17 clone 1300 is 0.612; in the assay with OR7A5 clone 1469, 0.48 and 0.633; in the assay on OR7C1 clone 1299 it was 0.56.
As to `CC(C)C=O` [isobutyraldehyde], the odorant receptor activation in the assay on OR6Q1 clone 1231 was 1.05; in [1], 1.22 and 0.965; with OR6T1 clone 1188, 0.898; with OR6V1 clone 1730, 0.812; with OR6X1 clone 1239, 0.984; in the assay on OR6Y1 V252I clone 1025 it was 1.29. For the same molecule, the odorant receptor activation in the assay on OR7A10 clone 1104 was 2.24; in the assay on OR7A17 clone 1300 it was 1.11 and 1.02; in the assay on OR7A5 clone 1469, 1.06 and 1.22; in the assay on OR7C1 clone 1299, 0.895 and 1.08.
Turning to `CC1=CCC(C(C)(C)O)CC1` (configuration not stated) [terpineol], the odorant receptor activation came out at 1.14 with OR6Q1 clone 1231; 0.963 in [1]; 1.16 in the assay on OR6T1 clone 1188; 0.878 in the assay with OR6V1 clone 1730; 1.3 in the assay on OR6X1 clone 1239; 0.9 in the assay with OR6Y1 V252I clone 1025. Also, the odorant receptor activation in the assay with OR7A10 clone 1104 came to 1.48; in the assay with OR7A17 clone 1300 it was 0.789; in the assay on OR7A5 clone 1469, 0.668; with OR7C1 clone 1299, 0.977.
Turning to `CC(C)(O)CCCC1=CCC(C=O)CC1` (configuration not stated) [lyral], the odorant receptor activation with OR6V1 clone 1730 and in the assay on OR6X1 clone 1239 was 1.15 in each case.
Turning to `CCCCCCC=O` [heptaldehyde], the odorant receptor activation with OR6Q1 clone 1231 was 1.03; in the assay with OR6T1 clone 1188, 0.555 and 1.09; in the assay with OR6V1 clone 1730 it was 0.858; with OR6X1 clone 1239 it was 1.01; in the assay on OR6Y1 V252I clone 1025 it was 1.29 and 2.81; with OR7A10 clone 1104, 1.2 and 2.83. The odorant receptor activation was 0.909 and 1.3 and 1.06 in the assay with OR7A17 clone 1300; 0.616 and 0.846 and 0.895 in the assay with OR7C1 clone 1299.
Regarding `COc1ccccc1O` [guaiacol], the odorant receptor activation in the assay with OR6Q1 clone 1231 was 0.947; in assay [1] it was 0.89 and 1.08; in the assay on OR6T1 clone 1188, 0.839; in the assay with OR6V1 clone 1730, 0.772; in the assay with OR6X1 clone 1239, 0.988; in the assay with OR6Y1 V252I clone 1025 it was 2.3. Further, the odorant receptor activation in the assay with OR7A10 clone 1104 is 1.81; in the assay on OR7A17 clone 1300, 1.29 and 1.12; in the assay with OR7A5 clone 1469, 0.912 and 0.987; in the assay on OR7C1 clone 1299, 1.05 and 0.871.
For `COC(=O)c1ccccc1O` [methyl salicylate], the odorant receptor activation stood at 0.599 with OR6Q1 clone 1231; 0.988 in assay [1]; 0.773 with OR6T1 clone 1188; 0.9 with OR6V1 clone 1730; 0.929 in the assay with OR6X1 clone 1239; 1.05 with OR6Y1 V252I clone 1025. Also, the odorant receptor activation is 1.04 in the assay with OR7A10 clone 1104, 1.09 in the assay with OR7A17 clone 1300, 0.787 in the assay with OR7A5 clone 1469 and 1.09 with OR7C1 clone 1299.
For the molecule `c1ccc(Oc2ccccc2)cc1` [diphenyl ether], the odorant receptor activation is 0.986 with OR6Q1 clone 1231; 1.05 in assay [1]; 1.1 in the assay on OR6T1 clone 1188; 0.816 in the assay on OR6V1 clone 1730; 0.713 in the assay with OR6X1 clone 1239; 1.1 with OR6Y1 V252I clone 1025. Also, the odorant receptor activation is 0.966 in the assay on OR7A10 clone 1104, 0.839 with OR7A17 clone 1300, 1.33 in the assay with OR7A5 clone 1469 and 1.27 in the assay on OR7C1 clone 1299.

(Values after the odorant receptor screen of Mainland et al. (2015).)
